# Source: the supplement of paper PMC8728848
# The other results are listed elsewhere or left out.
# B1: GroEL (Clostridium difficile), Q18CT5 (protein)
# chain: MAKEIKFSEETRRALEAGVNKLADTVKVTLGPKGRNVILDKKFGSPLITNDGVTIAKEIELEDRFENMGAQLVKEVATKTNDVAGDGTTTATVLAQAIIREGLKNVTAGANPILLRKGIQKAVTVAVEELKNQSRIVETQEAISQVASISAGDEEVGKLIAEAMEIVGKDGVITVEESQTMNTELDAVEGMQFDRGFVSAYMVTDVDKMEAVLNDPYILITDKKISNIQELLPVLEQIVQQGKKLLIIAEDVEGEALSTLVVNKLRGTFDVVAVKAPGFGDRRKEMLQDIAILTGAQVISEELGYDLKEADLSMLGRASSVKVTKESTTIVDGSGDKKAIEDRVTQIKHQVEQTTSDFDREKLMERLAKLAGGVAVVKVGAATEVELKERKLRIEDALNATRAAVEEGIVAGGGTAFVSVIPAIGTLIESLEGEVKLGAQIVKKALEEPLRQIAINAGLEGAVIVQNVVNSEAETGFDALNEKYVNMIEAGIVDPTKVSRSALQNAASIASTFLTTEAAVADLPEKEDAGMPGMGGGMPGMM
# Key:
# Test in all cases: glycan array binding signal (z-score within array); higher = stronger binding
# Conditions in all cases: glycan notation: IUPAC condensed, linker removed
# [1] = molecular target: Neu5Ac(a2-3)Gal(b1-4)GlcNAc(b1-6)[Gal(b1-3)]GalNAc
# How it was run: (§1)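 Glycan array data came from 3228 arrays in the Consortium for Functional Glycomics database, and only arrays with an available protein sequence were kept. Glycan names were put into IUPAC-condensed notation, and columns mapping to the same glycan were averaged. The binding signal is a within-array Z-score, averaged across arrays of one protein sequence run at different concentrations or buffers and across linkers. A negative Z-score can be read as non-binding.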
# [2] = molecular target: Neu5Ac(a2-3)Gal(b1-4)GlcNAc(b1-6)[Neu5Ac(a2-3)Gal(b1-3)]GalNAc
# How it was run: as §1
# [3] = molecular target: Neu5Ac(a2-3)Gal(b1-4)GlcNAc6S
# How it was run: as §1
# [4] = molecular target: Neu5Ac(a2-3)Gal(b1-4)[Fuc(a1-3)]GlcNAc
# How it was run: as §1
# [5] = molecular target: Neu5Ac(a2-3)Gal(b1-4)[Fuc(a1-3)]GlcNAc(b1-2)Man
# How it was run: as §1
# [6] = molecular target: Neu5Ac(a2-3)Gal(b1-4)[Fuc(a1-3)]GlcNAc(b1-3)Gal
# How it was run: as §1
# [7] = molecular target: Neu5Ac(a2-3)Gal(b1-4)[Fuc(a1-3)]GlcNAc(b1-3)Gal(b1-4)GlcNAc
# How it was run: as §1
# [8] = molecular target: Neu5Ac(a2-3)Gal(b1-4)[Fuc(a1-3)]GlcNAc(b1-3)Gal(b1-4)[Fuc(a1-3)]GlcNAc(b1-3)Gal(b1-4)[Fuc(a1-3)]GlcNAc
# How it was run: as §1
# [9] = molecular target: Neu5Ac(a2-3)Gal(b1-4)[Fuc(a1-3)]GlcNAc(b1-3)GalNAc
# How it was run: as §1
# [10] = molecular target: Neu5Ac(a2-3)Gal(b1-4)[Fuc(a1-3)]GlcNAc(b1-6)[Gal(b1-3)]GalNAc
# How it was run: as §1
# [11] = molecular target: Neu5Ac(a2-3)Gal(b1-4)[Fuc(a1-3)]GlcNAc(b1-6)[Neu5Ac(a2-3)Gal(b1-3)]GalNAc
# How it was run: as §1
# [12] = molecular target: Neu5Ac(a2-3)Gal(b1-4)[Fuc(a1-3)]GlcNAc6S
# How it was run: as §1
# [13] = molecular target: Neu5Ac(a2-3)Gal6S(b1-4)GlcNAc
# How it was run: as §1
# [14] = molecular target: Neu5Ac(a2-3)Gal6S(b1-4)[Fuc(a1-3)]GlcNAc
# How it was run: as §1
# Neu5Ac(a2-3)GalNAc = molecular target: Neu5Ac(a2-3)GalNAc
# How it was run: as §1
# [15] = molecular target: Neu5Ac(a2-3)GalNAc(b1-4)GlcNAc
# How it was run: as §1
# [16] = molecular target: Neu5Ac(a2-3)[GalNAc(b1-4)]Gal(b1-4)Glc
# How it was run: as §1
# [17] = molecular target: Neu5Ac(a2-3)[GalNAc(b1-4)]Gal(b1-4)GlcNAc
# How it was run: as §1
# [18] = molecular target: Neu5Ac(a2-3)[GalNAc(b1-4)]Gal(b1-4)GlcNAc(b1-3)GalNAc
# How it was run: as §1
# [19] = molecular target: Neu5Ac(a2-3)[Neu5Ac(a2-6)]GalNAc
# How it was run: as §1
# Neu5Ac(a2-6)Gal = molecular target: Neu5Ac(a2-6)Gal
# How it was run: as §1
# [20] = molecular target: Neu5Ac(a2-6)Gal(b1-3)GlcNAc(b1-3)[Gal(b1-4)GlcNAc(b1-6)]Gal(b1-4)Glc
# How it was run: as §1
# Neu5Ac(a2-6)Gal(b1-4)Glc = molecular target: Neu5Ac(a2-6)Gal(b1-4)Glc
# How it was run: as §1
# [21] = molecular target: Neu5Ac(a2-6)Gal(b1-4)GlcNAc
# How it was run: as §1
# [22] = molecular target: Neu5Ac(a2-6)Gal(b1-4)GlcNAc(b1-2)Man
# How it was run: as §1
# [23] = molecular target: Neu5Ac(a2-6)Gal(b1-4)GlcNAc(b1-2)Man(a1-3)Man(b1-4)GlcNAc(b1-4)GlcNAc
# How it was run: as §1
# [24] = molecular target: Neu5Ac(a2-6)Gal(b1-4)GlcNAc(b1-2)Man(a1-3)[Gal(b1-4)GlcNAc(b1-2)Man(a1-6)]Man(b1-4)GlcNAc(b1-4)GlcNAc
# How it was run: as §1
# [25] = molecular target: Neu5Ac(a2-6)Gal(b1-4)GlcNAc(b1-2)Man(a1-3)[GlcNAc(b1-2)Man(a1-6)]Man(b1-4)GlcNAc(b1-4)GlcNAc
# How it was run: as §1
# [26] = molecular target: Neu5Ac(a2-6)Gal(b1-4)GlcNAc(b1-2)Man(a1-3)[GlcNAc(b1-4)][Neu5Ac(a2-6)Gal(b1-4)GlcNAc(b1-2)Man(a1-6)]Man(b1-4)GlcNAc(b1-4)GlcNAc
# How it was run: as §1
# [27] = molecular target: Neu5Ac(a2-6)Gal(b1-4)GlcNAc(b1-2)Man(a1-3)[Man(a1-6)]Man(b1-4)GlcNAc(b1-4)GlcNAc
# How it was run: as §1
# [28] = molecular target: Neu5Ac(a2-6)Gal(b1-4)GlcNAc(b1-2)Man(a1-3)[Neu5Ac(a2-3)Gal(b1-4)GlcNAc(b1-2)Man(a1-6)]Man(b1-4)GlcNAc(b1-4)GlcNAc
# How it was run: as §1
# [29] = molecular target: Neu5Ac(a2-6)Gal(b1-4)GlcNAc(b1-2)Man(a1-3)[Neu5Ac(a2-6)Gal(b1-4)GlcNAc(b1-2)Man(a1-6)]Man(b1-4)GlcNAc(b1-4)GlcNAc
# How it was run: as §1
# [30] = molecular target: Neu5Ac(a2-6)Gal(b1-4)GlcNAc(b1-2)Man(a1-3)[Neu5Ac(a2-6)Gal(b1-4)GlcNAc(b1-2)Man(a1-6)]Man(b1-4)GlcNAc(b1-4)[Fuc(a1-6)]GlcNAc
# How it was run: as §1
# [31] = molecular target: Neu5Ac(a2-6)Gal(b1-4)GlcNAc(b1-2)Man(a1-6)Man(b1-4)GlcNAc(b1-4)GlcNAc
# How it was run: as §1
# [32] = molecular target: Neu5Ac(a2-6)Gal(b1-4)GlcNAc(b1-2)Man(a1-6)[Gal(b1-4)GlcNAc(b1-2)Man(a1-3)]Man(b1-4)GlcNAc(b1-4)GlcNAc
# How it was run: as §1
# [33] = molecular target: Neu5Ac(a2-6)Gal(b1-4)GlcNAc(b1-2)Man(a1-6)[GlcNAc(b1-2)Man(a1-3)]Man(b1-4)GlcNAc(b1-4)GlcNAc
# How it was run: as §1
# [34] = molecular target: Neu5Ac(a2-6)Gal(b1-4)GlcNAc(b1-2)Man(a1-6)[Man(a1-3)]Man(b1-4)GlcNAc(b1-4)GlcNAc
# How it was run: as §1
# [35] = molecular target: Neu5Ac(a2-6)Gal(b1-4)GlcNAc(b1-2)[Neu5Ac(a2-6)Gal(b1-4)GlcNAc(b1-4)]Man(a1-3)[GlcNAc(b1-4)][Neu5Ac(a2-6)Gal(b1-4)GlcNAc(b1-2)[Neu5Ac(a2-6)Gal(b1-4)GlcNAc(b1-6)]Man(a1-6)]Man(b1-4)GlcNAc(b1-4)GlcNAc
# How it was run: as §1
# [36] = molecular target: Neu5Ac(a2-6)Gal(b1-4)GlcNAc(b1-2)[Neu5Ac(a2-6)Gal(b1-4)GlcNAc(b1-4)]Man(a1-3)[GlcNAc(b1-4)][Neu5Ac(a2-6)Gal(b1-4)GlcNAc(b1-4)Man(a1-6)]Man(b1-4)GlcNAc(b1-4)GlcNAc
# How it was run: as §1
# [37] = molecular target: Neu5Ac(a2-6)Gal(b1-4)GlcNAc(b1-2)[Neu5Ac(a2-6)Gal(b1-4)GlcNAc(b1-6)]Man(a1-6)[Neu5Ac(a2-6)Gal(b1-4)GlcNAc(b1-2)Man(a1-3)][GlcNAc(b1-4)]Man(b1-4)GlcNAc(b1-4)GlcNAc
# How it was run: as §1
# [38] = molecular target: Neu5Ac(a2-6)Gal(b1-4)GlcNAc(b1-3)Gal(b1-3)GlcNAc
# How it was run: as §1
# [39] = molecular target: Neu5Ac(a2-6)Gal(b1-4)GlcNAc(b1-3)Gal(b1-4)GlcNAc
# How it was run: as §1
# [40] = molecular target: Neu5Ac(a2-6)Gal(b1-4)GlcNAc(b1-3)Gal(b1-4)GlcNAc(b1-2)Man(a1-3)[Neu5Ac(a2-6)Gal(b1-4)GlcNAc(b1-3)Gal(b1-4)GlcNAc(b1-2)Man(a1-6)]GalNAc
# How it was run: as §1
# [41] = molecular target: Neu5Ac(a2-6)Gal(b1-4)GlcNAc(b1-3)Gal(b1-4)GlcNAc(b1-3)Gal(b1-4)GlcNAc
# How it was run: as §1
# [42] = molecular target: Neu5Ac(a2-6)Gal(b1-4)GlcNAc(b1-3)Gal(b1-4)GlcNAc(b1-3)Gal(b1-4)GlcNAc(b1-2)Man(a1-3)[Neu5Ac(a2-6)Gal(b1-4)GlcNAc(b1-3)Gal(b1-4)GlcNAc(b1-3)Gal(b1-4)GlcNAc(b1-2)Man(a1-6)]GalNAc
# How it was run: as §1
binder,measurement,setting,value
B1,glycan array binding signal (z-score),[1],0.494
same,glycan array binding signal (z-score),[2],-1.35
same,glycan array binding signal (z-score),[3],0.922
same,glycan array binding signal (z-score),[4],-0.312
same,glycan array binding signal (z-score),[5],-0.579
same,glycan array binding signal (z-score),[6],-1.32
same,glycan array binding signal (z-score),[7],-0.986
same,glycan array binding signal (z-score),[8],-0.29
same,glycan array binding signal (z-score),[9],1.04
same,glycan array binding signal (z-score),[10],0.237
same,glycan array binding signal (z-score),[11],-0.05
same,glycan array binding signal (z-score),[12],-1.73
same,glycan array binding signal (z-score),[13],-0.105
same,glycan array binding signal (z-score),[14],-0.686
same,glycan array binding signal (z-score),Neu5Ac(a2-3)GalNAc,-0.654
same,glycan array binding signal (z-score),[15],-0.142
same,glycan array binding signal (z-score),[16],0.368
same,glycan array binding signal (z-score),[17],0.582
same,glycan array binding signal (z-score),[18],-1.15
same,glycan array binding signal (z-score),[19],-1.16
same,glycan array binding signal (z-score),Neu5Ac(a2-6)Gal,0.316
same,glycan array binding signal (z-score),[20],-1.09
same,glycan array binding signal (z-score),Neu5Ac(a2-6)Gal(b1-4)Glc,0.455
same,glycan array binding signal (z-score),[21],-0.303
same,glycan array binding signal (z-score),[22],-1.07
same,glycan array binding signal (z-score),[23],0.505
same,glycan array binding signal (z-score),[24],-0.433
same,glycan array binding signal (z-score),[25],0.014
same,glycan array binding signal (z-score),[26],-1.12
same,glycan array binding signal (z-score),[27],0.247
same,glycan array binding signal (z-score),[28],-0.416
same,glycan array binding signal (z-score),[29],0.26
same,glycan array binding signal (z-score),[30],0.913
same,glycan array binding signal (z-score),[31],-0.426
same,glycan array binding signal (z-score),[32],-1.45
same,glycan array binding signal (z-score),[33],-0.085
same,glycan array binding signal (z-score),[34],0.853
same,glycan array binding signal (z-score),[35],-0.602
same,glycan array binding signal (z-score),[36],-1.17
same,glycan array binding signal (z-score),[37],-0.633
same,glycan array binding signal (z-score),[38],2.1
same,glycan array binding signal (z-score),[39],-0.389
same,glycan array binding signal (z-score),[40],0.016
same,glycan array binding signal (z-score),[41],-0.99
same,glycan array binding signal (z-score),[42],-0.195
